Some of the results follow. Single values are uncertain, as repeats are few or missing.

The subject of the assay is MIA PaCa-2 persister. Description: persister cell viability relative to untreated persister control; higher = more surviving persister cells. Particulars: treatment time: 9 days; cell state: persister (100 nM gemcitabine + 100 nM Torin1).
With `COc1ccc([C@@H](O)c2cc(-c3ncnc4cc(N5CCOCC5)ccc34)c(F)cc2Cl)nn1` [Nedisertib] (inhibitor concentration: 10µM), the persister cell viability was 83%.
On to `CC(C)(C)c1cnc(CSc2cnc(NC(=O)C3CCNCC3)s2)o1` (inhibitor concentration: 30nM), for which the persister cell viability amounted to 63%.
Take `C/C(=N\NC(=O)c1cccc(S(=O)(=O)N2CCOCC2)c1)c1cc(Cl)ccc1O` (inhibitor concentration: 1µM): the persister cell viability worked out at 108%.
Take `CCN1C(=O)N(c2c(F)c(OC)cc(OC)c2F)Cc2cnc3[nH]c(CN4CCOCC4)cc3c21` [Pemigatinib] (inhibitor concentration: 10µM): the persister cell viability was determined as 82%.
Regarding `CC[C@@H]1C(=O)N(C)c2cnc(Nc3ccc(C(=O)NC4CCN(C)CC4)cc3OC)nc2N1C1CCCC1` (inhibitor concentration: 30nM), the persister cell viability was 101%.
For `CN1C(=O)N[C@H](Cc2c[nH]c3c(Cl)cccc23)C1=O` [Necrostatin-2] (inhibitor concentration: 30µM) the value was 98.5%; for `Cc1cc(Nc2cc(Cl)nc(Oc3ccc([N+](=O)[O-])cc3)n2)n[nH]1` [Autophinib] (inhibitor concentration: 1µM), 10%.
The result for `C[C@@H](Oc1cc(-n2cnc3ccc(CN4CCN(C)CC4)cc32)sc1C(N)=O)c1ccccc1C(F)(F)F` (inhibitor concentration: 300nM) reads 145%; that for `COc1cc(OC)c(/C=C/S(=O)(=O)Cc2ccc(OC)c(OP(=O)(O)O)c2)c(OC)c1` [Briciclib] (inhibitor concentration: 3nM), 50%.

Values taken from the supplement of paper PMC9671908.
